# Experimental data from ChEMBL document CHEMBL5308504, “Tm Shift (DSF) assay results for EUbOPEN Chemogenomics Library” (2023).
# By UniProt entry, the sequences of proteins in these tests, tags left out. Where a name states a change or a piece, a line headed by the entry shows the natural chain unless it says otherwise.
# UniProt P00519, whole entry: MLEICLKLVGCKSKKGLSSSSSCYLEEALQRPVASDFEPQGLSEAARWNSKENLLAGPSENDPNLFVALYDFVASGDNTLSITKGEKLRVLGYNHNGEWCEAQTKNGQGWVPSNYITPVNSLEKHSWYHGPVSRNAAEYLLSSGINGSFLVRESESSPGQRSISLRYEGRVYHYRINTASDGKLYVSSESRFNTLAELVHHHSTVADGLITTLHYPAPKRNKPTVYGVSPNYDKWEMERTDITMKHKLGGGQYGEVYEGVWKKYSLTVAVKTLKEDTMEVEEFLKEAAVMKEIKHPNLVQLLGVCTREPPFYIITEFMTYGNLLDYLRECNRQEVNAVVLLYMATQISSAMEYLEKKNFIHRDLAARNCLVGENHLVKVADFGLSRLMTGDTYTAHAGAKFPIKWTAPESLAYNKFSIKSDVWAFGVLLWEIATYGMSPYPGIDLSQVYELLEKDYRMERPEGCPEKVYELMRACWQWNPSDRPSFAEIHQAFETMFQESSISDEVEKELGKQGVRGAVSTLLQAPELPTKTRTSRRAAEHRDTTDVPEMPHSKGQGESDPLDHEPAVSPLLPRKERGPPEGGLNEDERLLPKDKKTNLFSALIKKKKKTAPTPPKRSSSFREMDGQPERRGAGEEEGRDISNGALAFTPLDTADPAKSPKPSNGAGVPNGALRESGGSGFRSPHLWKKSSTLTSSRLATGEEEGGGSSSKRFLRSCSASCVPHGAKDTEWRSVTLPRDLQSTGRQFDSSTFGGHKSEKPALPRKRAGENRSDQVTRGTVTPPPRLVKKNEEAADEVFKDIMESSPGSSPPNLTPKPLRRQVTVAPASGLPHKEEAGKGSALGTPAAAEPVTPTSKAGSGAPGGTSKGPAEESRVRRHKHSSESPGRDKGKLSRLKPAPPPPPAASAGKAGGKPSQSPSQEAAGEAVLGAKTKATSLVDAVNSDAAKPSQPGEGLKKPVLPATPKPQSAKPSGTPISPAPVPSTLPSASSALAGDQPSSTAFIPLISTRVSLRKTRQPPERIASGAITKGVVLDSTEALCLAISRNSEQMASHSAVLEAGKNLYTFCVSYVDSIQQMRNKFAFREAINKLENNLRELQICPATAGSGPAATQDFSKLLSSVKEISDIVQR
# UniProt P48730: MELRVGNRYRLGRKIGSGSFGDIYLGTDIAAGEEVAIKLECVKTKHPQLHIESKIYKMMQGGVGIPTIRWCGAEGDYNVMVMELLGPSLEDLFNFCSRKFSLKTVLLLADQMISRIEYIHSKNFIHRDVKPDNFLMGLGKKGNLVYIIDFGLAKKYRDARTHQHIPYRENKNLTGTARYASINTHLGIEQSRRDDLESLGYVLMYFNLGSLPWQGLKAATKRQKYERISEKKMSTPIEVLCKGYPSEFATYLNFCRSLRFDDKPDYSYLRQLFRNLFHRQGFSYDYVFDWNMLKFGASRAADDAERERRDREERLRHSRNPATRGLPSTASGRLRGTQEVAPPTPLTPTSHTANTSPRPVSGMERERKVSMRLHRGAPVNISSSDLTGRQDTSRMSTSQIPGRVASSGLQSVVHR
# UniProt P49841: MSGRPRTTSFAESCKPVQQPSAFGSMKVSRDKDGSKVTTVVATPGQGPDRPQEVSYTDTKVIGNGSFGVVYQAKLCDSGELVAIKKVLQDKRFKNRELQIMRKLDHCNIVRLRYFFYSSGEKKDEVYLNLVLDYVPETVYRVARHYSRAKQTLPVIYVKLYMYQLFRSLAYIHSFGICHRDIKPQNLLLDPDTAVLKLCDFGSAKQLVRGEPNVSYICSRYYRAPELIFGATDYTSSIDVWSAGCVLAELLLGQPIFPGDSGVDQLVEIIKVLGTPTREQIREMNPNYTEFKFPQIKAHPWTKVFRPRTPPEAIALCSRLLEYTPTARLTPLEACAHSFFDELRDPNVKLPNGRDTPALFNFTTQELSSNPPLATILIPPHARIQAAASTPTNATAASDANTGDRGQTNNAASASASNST
# UniProt P28482, whole entry: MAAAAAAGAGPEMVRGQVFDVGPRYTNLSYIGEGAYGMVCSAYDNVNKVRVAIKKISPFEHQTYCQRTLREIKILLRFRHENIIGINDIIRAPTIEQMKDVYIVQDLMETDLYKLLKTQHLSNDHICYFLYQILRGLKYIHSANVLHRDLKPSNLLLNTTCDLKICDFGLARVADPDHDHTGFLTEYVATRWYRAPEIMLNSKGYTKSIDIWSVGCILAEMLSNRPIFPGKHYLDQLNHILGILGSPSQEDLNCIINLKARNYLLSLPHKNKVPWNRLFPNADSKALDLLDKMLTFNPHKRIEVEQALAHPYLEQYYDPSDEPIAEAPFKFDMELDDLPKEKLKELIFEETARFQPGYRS
# For part of these data: Shown are results outside the selection of highest values, which stands elsewhere. For part of these data: This list holds what a sample rich in lowest values left over.
# Tests used:
# Conditions in all cases: Compound concentration 20.0 uM, Protein concentration 2.0 uM, Result type QC Liability
# [1] = target: Tyrosine-protein kinase ABL1 (Homo sapiens) (UniProt P00519)
# [2] = target: Cyclin-dependent kinase 2 (Homo sapiens) (UniProt P24941)
# [3] = target: Casein kinase I isoform delta (Homo sapiens) (UniProt P48730)
# [4] = target: Glycogen synthase kinase-3 beta (Homo sapiens) (UniProt P49841)
# [5] = target: Mitogen-activated protein kinase 1 (Homo sapiens) (UniProt P28482)
# [6] = target: T1, Aurora kinase A (Homo sapiens) (UniProt O14965)
# T1 sequence (whole entry): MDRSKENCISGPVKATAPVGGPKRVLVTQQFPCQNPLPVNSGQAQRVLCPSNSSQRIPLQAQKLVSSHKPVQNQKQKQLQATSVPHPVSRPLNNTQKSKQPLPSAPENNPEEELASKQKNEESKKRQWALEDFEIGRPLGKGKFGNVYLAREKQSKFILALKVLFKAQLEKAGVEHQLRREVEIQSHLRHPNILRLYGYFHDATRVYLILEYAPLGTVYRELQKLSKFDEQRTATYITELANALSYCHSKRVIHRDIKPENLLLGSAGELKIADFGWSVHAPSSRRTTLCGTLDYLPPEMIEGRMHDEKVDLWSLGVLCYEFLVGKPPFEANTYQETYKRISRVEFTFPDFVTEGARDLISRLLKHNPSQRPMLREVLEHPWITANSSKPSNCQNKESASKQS
smiles,measurement,setting,value
C[C@@H]1C[C@H](N)C[C@H](c2ccncc2NC(=O)c2ccc(F)c(-c3c(F)cccc3F)n2)C1,ΔTm,[1],1.24 °C
same,ΔTm,[2],0.66 °C
same,ΔTm,[3],0.51 °C
same,ΔTm,[4],7.41 °C
same,ΔTm,[5],0.39 °C
same,ΔTm,[6],0.62 °C
